Experimental findings from patent US20120231011A1 (APEXIGEN, published 2012) are described below.

In experiment [1] the target is T1, human VEGF (human, UniProt P15692-4 27-191, limits assumed).
T1 construct: The background describes VEGF as a homodimer
As to the kind of experiment: SPR, BIAcore-3000, human VEGF on CM5 chip. For orientation: SPR reads the build-up and loss of mass on a sensor chip optically.

The target in experiment [2] is IgG Fc-hVEGF-A (Human VEGF 165) fusion protein (rabbit; human) (UniProt P15692). As to the kind of experiment: competitive ELISA: antibody mixed with IgG Fc-hVEGF, added to plate-bound IgG Fc-VEGFR2 (KDR); bound VEGF detected (OD405); blocked ligand-receptor pair VEGF/KDR [FIG. 1].
For experiment [3] the target is unchanged. As to the kind of experiment: competitive ELISA, antibody 90 ug/ml-45 ng/ml premixed with IgG Fc-hVEGF 1 ug/ml, plate coated with IgG Fc-VEGFR2.

Results are given in words; binding and its absence hold for the method and conditions named. Some binding calls cover weakened binding; strength is not graded here. For some of these results: Sequences can lack the tags named with a protein.

B1: EPI0030 antibody (humanized rabbit anti-VEGF monoclonal antibody expressed by the HZD-V6 clone) (antibody, human IgG1, kappa, V domains shown)
VH: EVQLVESGGGLVKPGGSLRLSCAASGFSFSNNDVMCWVRQAPGKGLEWIGCIMTTDVVTEYANWAKSRFTVSRDSAKNSVYLQMNSLRAEDTAVYFCARDSVGSPLMSFDLWGPGTLVTVSS
VL: DIQMTQSPSSLSASVGDRVTINCQASQSIYNNNELSWYQQKPGKPPKLLIYRASTLASGVPSRFSGSGSGTDFTLTISSLQPEDVATYYCGGYKSYSNDGNGFGGGTKVEIKR
Take B1: the binding entry in experiment [1] is given as “binds”.

B2: recombinant humanized antibody expressed by the HZD-V1 clone (antibody, V domains shown)
VH: QQLVESGGGLVKPGGSLRLSCAASGFSFSNNDVMCWVRQAPGKGLEWIGCIMTTDVVTEYANWAKSRFTVSKDSAKNSVYLQMNSLRAEDTAVYFCARDSVGSPLMSFDLWGPGTLVTVSS
VL: ALQMTQSPSSLSASVGDRVTINCQASQSVYGNNELSWYQQKPGKPPKLLIYRASTLASGVPSRFSGSGSGTDFTLTISSLQPEDVATYYCGGYKSYSNDGNGFGGGTKVEIK
notes: The pairing of VH-HZD1 with VK-HZD1 for clone HZD-V1 is inferred from the names; Variable domains were cloned onto human CH and human CK
B2: the binding entry in experiment [2] and in experiment [3] was “binds” each time.

B3: recombinant humanized antibody expressed by the HZD-V5 clone (antibody, V domains shown)
VH: EVQLVESGGGLVKPGGSLRLSCAASGFSFSNNDVMCWVRQAPGKGLEWIGCIMTTDVVTEYANWAKSRFTVSKDSAKNSVYLQMNSLRAEDTAVYFCARDSVGSPLMSFDLWGPGTLVTVSS
VL: DIQMTQSPSSLSASVGDRVTINCQASQSVYGNNELSWYQQKPGKPPKLLIYRASTLASGVPSRFSGSGSGTDFTLTISSLQPEDVATYYCGGYKSYSNDGNGFGGGTKVEIK
notes: The pairing of VH-HZD5 with VK-HZD5 for clone HZD-V5 is inferred from the names; Variable domains were cloned onto human CH and human CK
As for B3, the binding entry in experiment [2] and in experiment [3] was “binds” each time.

B4: recombinant humanized antibody expressed by the HZD-V2 clone (antibody, V domains shown)
VH: QQLVESGGGLVKPGGSLRLSCAASGFSFSNNDVMCWVRQAPGKGLEWIGCIMTTDVVTEYANWAKSRFTVSRDSAKNSVYLQMNSLRAEDTAVYFCARDSVGSPLMSFDLWGPGTLVTVSS
VL: ALQMTQSPSSLSASVGDRVTINCQASQSIYNNNELSWYQQKPGKPPKLLIYRASTLASGVPSRFSGSGSGTDFTLTISSLQPEDVATYYCGGYKSYSNDGNGFGGGTKVEIK
notes: The pairing of VH-HZD2 with VK-HZD2 for clone HZD-V2 is inferred from the names; Variable domains were cloned onto human CH and human CK
Regarding B4, the binding entry in experiment [2] and in experiment [3] was “binds” throughout.
